## Screening data

Source: PubChem BioAssay AID504749 (NCATS, 2011).

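A panel of P. falciparum strains inside erythrocytes is exposed to compounds for three days, then a DNA-binding dye reports the amount of parasite DNA. Each compound was titrated across a series from about 0.000037 to 29 µM. The number is the fitted AC50, the concentration giving a half-maximal change in signal; a lower value means higher potency, whether the curve shows a decrease or an increase. Calls follow the curve class and fit quality: every row here is inconclusive, covering signal-raising curves and weak, poorly fitted, partial or highest-dose-only inhibition curves.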

Values are in nM. All entries here are filed as inconclusive. Only part of the assay is shown, chiefly results filed as inconclusive. Potencies fitted to partial, single-point or poorly fitting curves are rough. The first word of each remark tells which way the curve ran; it can be opposite to the aim of the assay.

compound	condition	potency (nM)	remark
CC(C(O)c1ccc(O)cc1)N1CCC(Cc2ccccc2)CC1 (centres undefined)	N140	11220	inhibitor, single point
CC(C(O)c1ccc(O)cc1)N1CCC(Cc2ccccc2)CC1 (centres undefined)	CP256	10000	inhibitor, single point
CC(C(O)c1ccc(O)cc1)N1CCC(Cc2ccccc2)CC1 (centres undefined)	CP215	11995	inhibitor, single point
CC(C(O)c1ccc(O)cc1)N1CCC(Cc2ccccc2)CC1 (centres undefined)	PAD	11220	inhibitor, single point
CC(C(O)c1ccc(O)cc1)N1CCC(Cc2ccccc2)CC1 (centres undefined)	PC26	5358	inhibitor, partial curve
CC(C(O)c1ccc(O)cc1)N1CCC(Cc2ccccc2)CC1 (centres undefined)	CP247	10000	inhibitor, single point
CC(C(O)c1ccc(O)cc1)N1CCC(Cc2ccccc2)CC1 (centres undefined)	DIV30	535.8	inhibitor, full curve, poor fit
CC(C(O)c1ccc(O)cc1)N1CCC(Cc2ccccc2)CC1 (centres undefined)	CP266	8492	inhibitor, partial curve, poor fit
CC(C(O)c1ccc(O)cc1)N1CCC(Cc2ccccc2)CC1 (centres undefined)	CP286	10000	inhibitor, single point
CC(C(O)c1ccc(O)cc1)N1CCC(Cc2ccccc2)CC1 (centres undefined)	HB3	17782	inhibitor, single point
CC(C(O)c1ccc(O)cc1)N1CCC(Cc2ccccc2)CC1 (centres undefined)	CP262	15101	inhibitor, single point
CC(C(O)c1ccc(O)cc1)N1CCC(Cc2ccccc2)CC1 (centres undefined)	P94_40	14125	inhibitor, single point
CC(C(O)c1ccc(O)cc1)N1CCC(Cc2ccccc2)CC1 (centres undefined)	ECU	12589	inhibitor, single point
CC(C(O)c1ccc(O)cc1)N1CCC(Cc2ccccc2)CC1 (centres undefined)	CP238	10000	inhibitor, single point
CC(C(O)c1ccc(O)cc1)N1CCC(Cc2ccccc2)CC1 (centres undefined)	JCK	17782	inhibitor, single point
CC(C(O)c1ccc(O)cc1)N1CCC(Cc2ccccc2)CC1 (centres undefined)	ATS95	11220	inhibitor, single point
CC(C(O)c1ccc(O)cc1)N1CCC(Cc2ccccc2)CC1 (centres undefined)	DFO2036	11220	inhibitor, single point
CC(C(O)c1ccc(O)cc1)N1CCC(Cc2ccccc2)CC1 (centres undefined)	CP265	11220	inhibitor, single point
CC(C(O)c1ccc(O)cc1)N1CCC(Cc2ccccc2)CC1 (centres undefined)	CP315	19011	inhibitor, single point
CC(C(O)c1ccc(O)cc1)N1CCC(Cc2ccccc2)CC1 (centres undefined)	CP252	12589	inhibitor, single point
CC(C(O)c1ccc(O)cc1)N1CCC(Cc2ccccc2)CC1 (centres undefined)	CP201	19011	inhibitor, single point
CC(C)(Oc1ccc(C2CC2(Cl)Cl)cc1)C(=O)O (centres undefined)	CP262	19011	activator, partial curve, poor fit
COC1CC(=C(c2cccs2)c2cccs2)C[N+](C)(C)C1 (centres undefined)	CP329	15101	inhibitor, single point
COC1CC(=C(c2cccs2)c2cccs2)C[N+](C)(C)C1 (centres undefined)	CP215	13459	inhibitor, single point
COC1CC(=C(c2cccs2)c2cccs2)C[N+](C)(C)C1 (centres undefined)	CP305	6012	inhibitor, partial curve, poor fit
COC1CC(=C(c2cccs2)c2cccs2)C[N+](C)(C)C1 (centres undefined)	Dd2	11220	inhibitor, single point
COC1CC(=C(c2cccs2)c2cccs2)C[N+](C)(C)C1 (centres undefined)	CP325	10690	inhibitor, partial curve
COC1CC(=C(c2cccs2)c2cccs2)C[N+](C)(C)C1 (centres undefined)	CP291	11995	inhibitor, single point
COC1CC(=C(c2cccs2)c2cccs2)C[N+](C)(C)C1 (centres undefined)	CP315	19011	inhibitor, single point
COC1CC(=C(c2cccs2)c2cccs2)C[N+](C)(C)C1 (centres undefined)	CP201	10690	inhibitor, single point
COC1CC(=C(c2cccs2)c2cccs2)C[N+](C)(C)C1 (centres undefined)	CP266	477.5	inhibitor, full curve, poor fit
COC1CC(=C(c2cccs2)c2cccs2)C[N+](C)(C)C1 (centres undefined)	PAD	12589	inhibitor, partial curve, poor fit

The last 4 entries again:

| compound | condition | potency (nM) | remark |
|---|---|---|---|
| `COC1CC(=C(c2cccs2)c2cccs2)C[N+](C)(C)C1` (centres undefined) | CP315 | 19011 | inhibitor, single point |
| `COC1CC(=C(c2cccs2)c2cccs2)C[N+](C)(C)C1` (centres undefined) | CP201 | 10690 | inhibitor, single point |
| `COC1CC(=C(c2cccs2)c2cccs2)C[N+](C)(C)C1` (centres undefined) | CP266 | 477.5 | inhibitor, full curve, poor fit |
| `COC1CC(=C(c2cccs2)c2cccs2)C[N+](C)(C)C1` (centres undefined) | PAD | 12589 | inhibitor, partial curve, poor fit |